In PubChem BioAssay AID1439 (NMMLSC, 2008):
Out of some 220,000 compounds screened, about 770 (0.35%) were called active. Inconclusive results, whose numbers are uncertain, are shown with a selection of clear calls. No stated cut-off is given here; in the data, active means binding response below about 49% or above about 150%; inconclusive means no clear call, values can overlap the other calls; inactive means in between.

By UniProt entry, the sequences of proteins in these tests, tags left out.
UniProt P09471, whole entry, looked up: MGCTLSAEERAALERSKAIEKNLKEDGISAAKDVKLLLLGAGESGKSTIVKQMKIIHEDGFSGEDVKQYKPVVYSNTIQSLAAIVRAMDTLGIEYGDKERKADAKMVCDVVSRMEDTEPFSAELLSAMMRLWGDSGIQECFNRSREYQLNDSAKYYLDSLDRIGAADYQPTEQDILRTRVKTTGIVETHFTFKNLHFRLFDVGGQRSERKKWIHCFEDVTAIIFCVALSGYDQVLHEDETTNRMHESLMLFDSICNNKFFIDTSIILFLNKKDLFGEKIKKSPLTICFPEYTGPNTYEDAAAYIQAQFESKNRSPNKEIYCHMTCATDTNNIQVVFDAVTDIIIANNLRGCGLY

The compounds below were run against Guanine nucleotide-binding protein G(o) subunit alpha (Homo sapiens) (UniProt P09471) (assay: RGS7-Galphao binding modulators, primary screen, biochemical, multiplexed bead flow cytometry (AID 1439;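 further: fluorescent Galphao held in activated GDP-AlF4 state binding bead-coupled RGS7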)). Settings: at 10 µM, actives lie on both sides.
With `Nc1nc(-c2ccccc2)[nH]c(=O)c1N=O` the binding response (% of control) was inconclusive: 108%.
`COc1ccc(NC(=O)/C(N=Nc2cc(S(=O)(=O)Nc3ccc(OC)cc3)ccc2OC)=C(\C)O)cc1` was tested, and the binding response (% of control) was inconclusive: 105%.
With `O=C(O)c1ccc(N/N=C/c2cc3cc4c(cc3nc2Cl)OCCO4)cc1` the binding response (% of control) was inconclusive: 97%.
With `C=CCn1c(SCC(=O)c2[nH]c(C)c(C(=O)OCC)c2C)nc2scc(-c3ccc(OC)c(OC)c3)c2c1=O` the binding response (% of control) was inactive: 105%.
With `Cc1sc2ncn(CC(=O)NCC3COc4ccccc4O3)c(=O)c2c1S(=O)(=O)N1CCOCC1` (stereo not given) the binding response (% of control) was inconclusive: 94.4%.
With `O=C(CSc1nnc(CNc2ccc(F)cc2)o1)N1c2ccccc2Sc2ccccc21` the binding response (% of control) was inactive: 101%.
In the case of `CCOc1ccc(N2C(=O)C3Sc4[nH]c(=O)sc4C(c4ccc(OC)c(OC)c4)C3C2=O)cc1` (stereo not given), the binding response (% of control) is reported as inconclusive: 96.9%.
`Cc1nnc(NC(=O)c2ccc(S(=O)(=O)C(F)F)cc2)s1` was tested, and the binding response (% of control) was inconclusive: 94.3%.
`O=C(NC1(O)C(=O)c2ccccc2C1=O)c1c(Cl)cccc1Cl` was tested, and the binding response (% of control) was inconclusive: 86.5%.
With `O=C(N/N=C/c1cccc([N+](=O)[O-])c1)c1ccncc1` the binding response (% of control) was inconclusive: 73.5%.
For `Cc1cc(C)cc(Nc2ncnc3nc[nH]c23)c1`, the binding response (% of control) was inconclusive: 104%.
For `O=C(CSc1ccccc1)NCCSCc1ccccc1`, the binding response (% of control) was inactive: 98.3%.
For `O=C1CCC(=O)N1c1ccc(-c2nc3sc4c(c3c(=O)o2)CCC4)cc1`, the binding response (% of control) was inconclusive: 76.5%.
`COc1ccc(CCNC(=O)CSc2nnc3ccc(-c4ccncc4)nn23)cc1` was tested, and the binding response (% of control) was inconclusive: 84.5%.
`CC(C)c1ccc(C(O)P(=O)(OCc2ccccc2)c2ccc(N(C)C)cc2)cc1` (stereo not given) was tested, and the binding response (% of control) was inconclusive: 53%.
In the case of `Cc1ccccc1NC(=O)N(CCc1nc2ccccc2[nH]1)Cc1ccccc1`, the binding response (% of control) is reported as inactive: 102%.
For `Fc1ccc(NC(=S)N2CCc3[nH]c4ccccc4c3C2)cc1`, the binding response (% of control) was inconclusive: 85.5%.
With `Cc1nn(C(=O)c2cccs2)c(C)c1CN1C(=O)c2ccccc2C1=O` the binding response (% of control) was inactive: 95.5%.
For `Clc1ccc2nc(CSc3ncn[nH]3)cn2c1`, the binding response (% of control) was inconclusive: 122%.
For `O=C(O)CCCCCNc1ccc2nsnc2c1[N+](=O)[O-]`, the binding response (% of control) was inactive: 105%.
In the case of `COc1ccc(C(c2c(N)[nH]c(=S)[nH]c2=O)c2c(N)[nH]c(=S)[nH]c2=O)cc1`, the binding response (% of control) is reported as inconclusive: 112%.
`COc1ccc(S(=O)(=O)N2CCCCC2)cc1NC(=O)c1ccc([N+](=O)[O-])o1` was tested, and the binding response (% of control) was inconclusive: 94.8%.
With `Cc1cccc(OCC(=O)N/N=C/c2sc(=O)n(Cc3cccc(C(=O)O)c3)c2Cl)c1` the binding response (% of control) was inconclusive: 145%.
For `Cc1ccc(-n2nc(C)cc2N)c(C)c1`, the binding response (% of control) was inconclusive: 104%.
`CC(C)n1c(=S)[nH]c2cc(Cl)ccc21` was tested, and the binding response (% of control) was inconclusive: 102%.
`CCOc1ccc(/C(O)=C2/C(=O)C(=O)N(c3ncccn3)C2c2ccc(Cl)cc2)cc1` (stereo not given) was tested, and the binding response (% of control) was inconclusive: 127%.
In the case of `COc1cc(C(=O)N/N=C/c2ccc(OC)c(CN3CCN(c4ccc(F)cc4)CC3)c2)ccc1O`, the binding response (% of control) is reported as inactive: 108%.
For `Cc1ccc(NC(=S)N/N=C2/CCCCc3ccccc32)cc1`, the binding response (% of control) was inconclusive: 92.8%.
`CC(=O)c1ccc(S(=O)(=O)N2CCNCC2)cc1` was tested, and the binding response (% of control) was inconclusive: 98.1%.
For `COc1ccc2c(c1)CCC/C2=N\Nc1nc(C(=O)NN)cs1`, the binding response (% of control) was inconclusive: 97%.
In the case of `Cc1ccc(OCCn2nc3ccccc3n2)c(C)c1`, the binding response (% of control) is reported as active: 192% [activator].
In the case of `CCC(C)NC(=S)Nc1ccccc1` (stereo not given), the binding response (% of control) is reported as inconclusive: 90.7%.
For `CCOC(=O)c1c(NC(=S)N2CCOCC2)sc(C)c1C`, the binding response (% of control) was inconclusive: -33.1%.
In the case of `O=C(COC(=O)C1CCN(S(=O)(=O)c2cccc3cccnc23)CC1)c1ccccc1`, the binding response (% of control) is reported as inactive: 102%.
`Cc1ccc(S(=O)(=O)N(C)C)cc1NC(=O)CN1C(=O)NC(Cc2c[nH]c3ccccc23)C1=O` (stereo not given) was tested, and the binding response (% of control) was inconclusive: 97.3%.
`Cc1cccc2sc(NC(=O)[C@@H]3CCCN3C(=O)c3cccs3)nc12` was tested, and the binding response (% of control) was inactive: 111%.
For `CN(C)CC#CCC(O)(c1ccccc1)c1ccccc1`, the binding response (% of control) was inconclusive: 109%.
`CCSc1nc(N)c2c3c(sc2n1)CCC3` was tested, and the binding response (% of control) was inactive: 84.8%.
For `CNC(=S)N(Cc1ccccc1)Cc1cccnc1`, the binding response (% of control) was inconclusive: 93.4%.
`CCOc1cc(CNC(CC)CO)ccc1OCC(=O)Nc1cccc(C(F)(F)F)c1` (stereo not given) was tested, and the binding response (% of control) was inconclusive: 99.4%.
In the case of `C=C1CCN([C@H](C(=O)NCc2ccc(Cl)cc2)C(C)C)S(=O)(=O)c2ccccc21`, the binding response (% of control) is reported as inconclusive: 76.3%.
In the case of `O=C(c1ccc(S(=O)(=O)N2CCCC2)cc1)N1CCC(CN2C(=O)c3cccc4cccc(c34)C2=O)CC1`, the binding response (% of control) is reported as inconclusive: 105%.
With `O=C1CCC(N2C(=O)c3ccccc3C2=O)C(=O)N1` (stereo not given) the binding response (% of control) was active: 22.7%.
In the case of `O=C(CN1C(=O)C(=O)N(Cc2ccco2)C1=O)c1c[nH]c2ccccc12`, the binding response (% of control) is reported as inconclusive: 111%.
In the case of `Cc1cc(Cl)c2ccc(Cl)cc2n1`, the binding response (% of control) is reported as inconclusive: 100%.
In the case of `COc1ccc(OC)c(-n2nnnc2SCC(=O)Nc2ccccc2N2CCOCC2)c1`, the binding response (% of control) is reported as inactive: 95.7%.
In the case of `CCO[C@H]1OC(C(=O)Nc2ccccc2)=C[C@@H](c2cn(C(C)=O)c3ccccc23)[C@@H]1CCCO`, the binding response (% of control) is reported as inactive: 106%.
For `Brc1ccc(COc2ncnc3ccccc23)cc1`, the binding response (% of control) was inconclusive: 90.9%.
With `O=C(NCc1ccccn1)c1n[nH]c(=O)c2ccccc12` the binding response (% of control) was inconclusive: 107%.
With `O=S1(=O)C[C@@H](O)[C@@H](Nc2ccccc2)C1` the binding response (% of control) was inconclusive: 25.9%.
`C=CCn1c(CCNC(=O)c2ccccc2F)nnc1SCc1nc2ccccc2c(=O)[nH]1` was tested, and the binding response (% of control) was inactive: 99.7%.
For `CN(C(=S)Nc1ccc(Oc2ccccc2)cc1)C1CCCCC1`, the binding response (% of control) was inactive: 84.6%.
For `O=C1C2C3c4ccccc4C(c4ccccc43)C2C(=O)N1c1cccnc1` (stereo not given), the binding response (% of control) was inactive: 85.5%.
`O=C(CCC(=O)N(CC(=O)NC1CCCC1)C1CCCCC1)Nc1ccccn1` was tested, and the binding response (% of control) was inactive: 93.1%.
`Nc1nnc(SCC(=O)c2ccc([N+](=O)[O-])cc2)s1` was tested, and the binding response (% of control) was inconclusive: 115%.
In the case of `CCc1nnc(NC(=O)CSc2nnc3ncccn23)s1`, the binding response (% of control) is reported as inactive: 102%.
`COCCCN1C(=O)C(=O)/C(=C(/O)c2ccc(C)cc2)C1/C=C/c1ccccc1` (stereo not given) was tested, and the binding response (% of control) was inconclusive: 97.1%.
`Cc1c(C=O)c2ccccn2c1C(=O)c1cccs1` was tested, and the binding response (% of control) was inconclusive: 110%.
For `Cc1ccnc(SCCn2c(N3CCN(C)CC3)nc3c2c(=O)n(C)c(=O)n3C)n1`, the binding response (% of control) was inconclusive: 191%.
With `O=C(O)c1cccnc1SCc1cccc(Cl)c1` the binding response (% of control) was inactive: 98.7%.
`Cc1cc(C)c2cc(C(=O)N3CCC(Cc4ccccc4)CC3)[nH]c2c1` was tested, and the binding response (% of control) was inconclusive: 66.2%.
In the case of `O=C(N/N=C/c1c[nH]c2ccccc12)c1ccn[nH]1`, the binding response (% of control) is reported as inconclusive: 101%.
For `O=C(O)CCC(=O)Nc1nc2nccc(-c3ccccc3)n2n1`, the binding response (% of control) was inconclusive: 120%.
For `O=C(CCl)Nc1cc(S(=O)(=O)N2CCOCC2)ccc1N1CCOCC1`, the binding response (% of control) was inconclusive: 89.8%.
`O=[N+]([O-])c1cccc(/C([O-])=C(/C(=S)Nc2ccccc2)[n+]2ccccc2)c1` was tested, and the binding response (% of control) was inactive: 96.8%.
For `COc1cccc(C2c3c(oc4cc(C)c(C)cc4c3=O)C(=O)N2CCCN(C)C)c1` (stereo not given), the binding response (% of control) was active: 263% [activator].
`COc1ccc(OC(C)C(=O)NCCC2=CCCCC2)cc1` (stereo not given) was tested, and the binding response (% of control) was inconclusive: 103%.
For `CC1(C(=O)Nc2c(F)c(F)c(F)c(F)c2F)CC1(Br)Br` (stereo not given), the binding response (% of control) was inconclusive: 63.6%.
With `CCOC(=O)C1=C(C)NC(=S)NC1c1ccsc1` (stereo not given) the binding response (% of control) was inactive: 102%.
With `O=C(Nc1ccccc1N1CCN(C(=O)c2ccccc2)CC1)c1ccccc1Cl` the binding response (% of control) was inconclusive: 101%.
`Clc1ccc(-c2nnc(-c3ccccc3)c(-c3c[nH]c4ccccc34)n2)cc1` was tested, and the binding response (% of control) was inconclusive: 98.8%.
For `CC(C)CCN1CCN(Cc2ccoc2)CC1CCO` (stereo not given), the binding response (% of control) was inconclusive: 331%.
In the case of `O=C1/C(=C\c2ccc(-c3ccccc3[N+](=O)[O-])o2)C(c2ccccc2)=NN1c1ccccc1`, the binding response (% of control) is reported as active: 7.79%.
`Cc1ccc(NCN2C(=O)C(=O)c3ccccc32)nc1` was tested, and the binding response (% of control) was inactive: 106%.
In the case of `CN(C)c1ccc(P(=O)(OCc2ccccc2)C(O)c2ccccc2)cc1` (stereo not given), the binding response (% of control) is reported as inconclusive: 706%.
`CC(=O)n1nc(-c2ccc(C)cc2)nc1NCc1ccc(F)cc1` was tested, and the binding response (% of control) was inconclusive: 107%.
`Cc1ccc(CSC2=Nc3ccccc3C3=NC(CC(=O)NCc4ccco4)C(=O)N23)cc1` (stereo not given) was tested, and the binding response (% of control) was inactive: 97.2%.
For `CC[C@@H]1CC=C[C@H]2[C@H]1C(=O)N(Cc1ccccc1)[C@H]2c1ccc(C(F)(F)F)cc1`, the binding response (% of control) was inconclusive: 115%.
For `CCOc1ncccc1C(=O)Nc1ncc(C)s1`, the binding response (% of control) was inconclusive: 101%.
In the case of `O=C(N/N=C/c1ccncc1)c1cnccn1`, the binding response (% of control) is reported as inconclusive: 335%.
`c1ccc(CCCNCC2COc3ccccc3O2)cc1` (stereo not given) was tested, and the binding response (% of control) was inconclusive: 127%.
With `NC(=O)c1nsc(C(=O)N(CC(=O)NC2CCCC2)c2cnc3ccccc3c2)c1N` the binding response (% of control) was inconclusive: 88.1%.
With `COc1cccc2c1OC1(CCN(C(C)C)CC1)N1N=C(c3cccnc3)CC21` (stereo not given) the binding response (% of control) was inconclusive: 277%.
`CC(C)(C)C(=O)OCc1nc(-c2ccc(F)cc2)cs1` was tested, and the binding response (% of control) was inconclusive: -29.8%.
With `Cc1nc2c(C)cccn2c1/C(O)=C1\C(=O)C(=O)N(CCN(C)C)C1c1ccccc1` (stereo not given) the binding response (% of control) was inconclusive: 225%.
In the case of `COCCNC(=O)c1ccccc1NC(=O)Cc1ccccc1`, the binding response (% of control) is reported as inconclusive: 118%.
For `c1ccc2c(c1)ncn2-c1ccc(-c2ccnc3ncnn23)cc1`, the binding response (% of control) was inconclusive: 83.4%.
`COCCN(C(=S)Nc1ccc(Cl)cc1OC)C1CCN(C(C)=O)CC1` was tested, and the binding response (% of control) was inconclusive: 92.9%.
With `O=C(CSc1nccc(-c2cccs2)n1)Nc1ccc(Cl)cc1` the binding response (% of control) was inconclusive: 130%.
With `COc1ccc(CC(=O)OCC(=O)Nc2ccc(Cl)c(S(=O)(=O)N(C)C)c2)cc1` the binding response (% of control) was inconclusive: 90.7%.
